Measurements from the supplement of paper PMC10849652.
The list shows a part of the results. Residues, ends and D or L forms follow the SMILES beside them. *: point of attachment. Cbz = O=C(OCc1ccccc1)*

The chains behind the UniProt entries cited, without tags or fusion partners. Where a name states a change or a piece, a line headed by the entry shows the natural chain unless it says otherwise.
UniProt Q8NHH9: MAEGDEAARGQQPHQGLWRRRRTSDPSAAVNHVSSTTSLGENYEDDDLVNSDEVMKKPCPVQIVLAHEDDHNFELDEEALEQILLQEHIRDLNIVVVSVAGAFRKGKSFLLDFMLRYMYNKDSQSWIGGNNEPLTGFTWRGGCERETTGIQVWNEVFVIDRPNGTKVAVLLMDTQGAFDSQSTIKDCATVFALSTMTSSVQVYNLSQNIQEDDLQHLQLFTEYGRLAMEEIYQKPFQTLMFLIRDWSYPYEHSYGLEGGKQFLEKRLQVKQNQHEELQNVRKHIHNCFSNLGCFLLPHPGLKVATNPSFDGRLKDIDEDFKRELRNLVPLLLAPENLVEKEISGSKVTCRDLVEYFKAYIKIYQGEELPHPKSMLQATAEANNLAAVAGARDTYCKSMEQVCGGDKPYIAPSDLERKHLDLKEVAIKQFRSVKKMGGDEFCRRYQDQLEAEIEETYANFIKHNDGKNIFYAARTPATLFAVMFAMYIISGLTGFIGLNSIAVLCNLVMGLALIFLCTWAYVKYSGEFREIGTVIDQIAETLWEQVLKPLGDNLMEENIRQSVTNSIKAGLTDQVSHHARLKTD
UniProt Q9NQ11: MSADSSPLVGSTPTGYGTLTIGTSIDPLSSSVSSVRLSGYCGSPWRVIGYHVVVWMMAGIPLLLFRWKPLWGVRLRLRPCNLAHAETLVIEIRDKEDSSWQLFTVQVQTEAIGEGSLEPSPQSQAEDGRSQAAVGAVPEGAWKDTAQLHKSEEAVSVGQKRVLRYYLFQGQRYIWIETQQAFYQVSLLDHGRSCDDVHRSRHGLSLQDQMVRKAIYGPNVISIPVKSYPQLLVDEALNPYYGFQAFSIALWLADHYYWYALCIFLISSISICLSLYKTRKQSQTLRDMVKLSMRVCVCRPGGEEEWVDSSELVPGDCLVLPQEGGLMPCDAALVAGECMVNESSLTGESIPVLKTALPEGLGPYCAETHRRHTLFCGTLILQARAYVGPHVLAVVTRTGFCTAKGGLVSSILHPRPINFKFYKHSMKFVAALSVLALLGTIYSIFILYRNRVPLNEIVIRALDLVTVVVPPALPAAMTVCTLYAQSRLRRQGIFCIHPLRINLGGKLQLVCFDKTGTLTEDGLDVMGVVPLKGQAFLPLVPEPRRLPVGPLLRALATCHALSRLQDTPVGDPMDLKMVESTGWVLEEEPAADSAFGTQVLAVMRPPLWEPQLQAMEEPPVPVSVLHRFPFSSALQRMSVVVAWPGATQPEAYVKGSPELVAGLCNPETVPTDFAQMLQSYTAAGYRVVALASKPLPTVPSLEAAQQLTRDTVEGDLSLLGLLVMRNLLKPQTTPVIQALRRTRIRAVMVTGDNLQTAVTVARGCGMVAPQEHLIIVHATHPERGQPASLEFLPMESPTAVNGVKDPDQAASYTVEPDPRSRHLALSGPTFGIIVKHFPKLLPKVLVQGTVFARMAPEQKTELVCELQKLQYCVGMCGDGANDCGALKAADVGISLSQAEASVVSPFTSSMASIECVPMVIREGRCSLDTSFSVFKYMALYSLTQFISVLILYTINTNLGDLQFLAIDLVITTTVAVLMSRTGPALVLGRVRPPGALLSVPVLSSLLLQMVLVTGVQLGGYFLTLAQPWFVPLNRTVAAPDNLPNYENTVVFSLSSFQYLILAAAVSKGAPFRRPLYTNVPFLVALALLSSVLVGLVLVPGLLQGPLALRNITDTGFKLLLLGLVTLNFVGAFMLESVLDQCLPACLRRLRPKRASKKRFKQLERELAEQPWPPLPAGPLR
UniProt P36405: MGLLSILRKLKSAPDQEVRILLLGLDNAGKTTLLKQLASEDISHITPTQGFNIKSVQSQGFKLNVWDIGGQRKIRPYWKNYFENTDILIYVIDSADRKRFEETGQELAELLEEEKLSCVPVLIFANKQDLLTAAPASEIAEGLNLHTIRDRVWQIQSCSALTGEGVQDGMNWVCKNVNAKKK
UniProt Q8N2F6: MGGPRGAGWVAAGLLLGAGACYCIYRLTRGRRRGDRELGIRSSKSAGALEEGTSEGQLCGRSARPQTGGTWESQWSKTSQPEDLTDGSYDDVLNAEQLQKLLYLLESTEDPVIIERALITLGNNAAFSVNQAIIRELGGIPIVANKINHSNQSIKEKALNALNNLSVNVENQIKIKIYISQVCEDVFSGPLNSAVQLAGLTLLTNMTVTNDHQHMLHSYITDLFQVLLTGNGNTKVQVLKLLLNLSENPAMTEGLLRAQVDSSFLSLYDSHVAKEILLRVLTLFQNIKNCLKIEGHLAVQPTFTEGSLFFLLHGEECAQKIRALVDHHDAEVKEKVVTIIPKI
UniProt O43861: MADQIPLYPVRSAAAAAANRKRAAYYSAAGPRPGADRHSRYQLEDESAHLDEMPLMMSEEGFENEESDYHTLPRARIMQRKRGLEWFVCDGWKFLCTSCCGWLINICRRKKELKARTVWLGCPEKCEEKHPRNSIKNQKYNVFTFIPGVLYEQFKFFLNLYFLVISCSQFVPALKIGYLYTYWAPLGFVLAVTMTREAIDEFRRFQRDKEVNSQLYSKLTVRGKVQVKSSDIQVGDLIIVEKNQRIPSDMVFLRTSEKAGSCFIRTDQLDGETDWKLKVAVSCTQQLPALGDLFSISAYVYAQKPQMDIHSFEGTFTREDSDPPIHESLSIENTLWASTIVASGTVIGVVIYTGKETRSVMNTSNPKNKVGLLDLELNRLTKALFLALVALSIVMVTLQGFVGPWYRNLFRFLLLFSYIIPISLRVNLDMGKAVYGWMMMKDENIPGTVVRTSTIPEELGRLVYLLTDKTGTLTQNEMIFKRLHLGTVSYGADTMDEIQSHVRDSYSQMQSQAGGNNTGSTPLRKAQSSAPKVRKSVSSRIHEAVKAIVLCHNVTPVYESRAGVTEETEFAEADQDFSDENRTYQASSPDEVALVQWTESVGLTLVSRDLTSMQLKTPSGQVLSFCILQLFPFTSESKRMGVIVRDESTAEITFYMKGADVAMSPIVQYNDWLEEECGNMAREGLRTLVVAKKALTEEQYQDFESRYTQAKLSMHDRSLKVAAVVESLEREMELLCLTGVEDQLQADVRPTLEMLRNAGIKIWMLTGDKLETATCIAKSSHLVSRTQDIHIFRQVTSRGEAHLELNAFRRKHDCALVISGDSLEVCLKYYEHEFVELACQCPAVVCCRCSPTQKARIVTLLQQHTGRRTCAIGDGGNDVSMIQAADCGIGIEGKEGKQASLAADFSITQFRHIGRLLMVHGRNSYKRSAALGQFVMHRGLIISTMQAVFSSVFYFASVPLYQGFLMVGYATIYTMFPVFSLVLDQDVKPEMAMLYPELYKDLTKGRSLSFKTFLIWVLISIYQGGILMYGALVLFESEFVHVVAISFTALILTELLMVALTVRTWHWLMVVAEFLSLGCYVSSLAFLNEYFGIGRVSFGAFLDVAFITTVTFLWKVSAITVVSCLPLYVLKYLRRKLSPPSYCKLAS
UniProt P14415, whole entry, looked up: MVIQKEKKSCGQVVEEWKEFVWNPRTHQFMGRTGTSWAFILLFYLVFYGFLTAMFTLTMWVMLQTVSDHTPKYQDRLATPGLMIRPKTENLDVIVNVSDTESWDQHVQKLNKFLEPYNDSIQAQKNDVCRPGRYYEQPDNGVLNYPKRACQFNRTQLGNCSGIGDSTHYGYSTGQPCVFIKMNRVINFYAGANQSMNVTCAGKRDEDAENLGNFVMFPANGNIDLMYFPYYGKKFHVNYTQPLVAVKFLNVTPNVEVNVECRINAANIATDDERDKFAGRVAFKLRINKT
UniProt P54707, whole entry, looked up: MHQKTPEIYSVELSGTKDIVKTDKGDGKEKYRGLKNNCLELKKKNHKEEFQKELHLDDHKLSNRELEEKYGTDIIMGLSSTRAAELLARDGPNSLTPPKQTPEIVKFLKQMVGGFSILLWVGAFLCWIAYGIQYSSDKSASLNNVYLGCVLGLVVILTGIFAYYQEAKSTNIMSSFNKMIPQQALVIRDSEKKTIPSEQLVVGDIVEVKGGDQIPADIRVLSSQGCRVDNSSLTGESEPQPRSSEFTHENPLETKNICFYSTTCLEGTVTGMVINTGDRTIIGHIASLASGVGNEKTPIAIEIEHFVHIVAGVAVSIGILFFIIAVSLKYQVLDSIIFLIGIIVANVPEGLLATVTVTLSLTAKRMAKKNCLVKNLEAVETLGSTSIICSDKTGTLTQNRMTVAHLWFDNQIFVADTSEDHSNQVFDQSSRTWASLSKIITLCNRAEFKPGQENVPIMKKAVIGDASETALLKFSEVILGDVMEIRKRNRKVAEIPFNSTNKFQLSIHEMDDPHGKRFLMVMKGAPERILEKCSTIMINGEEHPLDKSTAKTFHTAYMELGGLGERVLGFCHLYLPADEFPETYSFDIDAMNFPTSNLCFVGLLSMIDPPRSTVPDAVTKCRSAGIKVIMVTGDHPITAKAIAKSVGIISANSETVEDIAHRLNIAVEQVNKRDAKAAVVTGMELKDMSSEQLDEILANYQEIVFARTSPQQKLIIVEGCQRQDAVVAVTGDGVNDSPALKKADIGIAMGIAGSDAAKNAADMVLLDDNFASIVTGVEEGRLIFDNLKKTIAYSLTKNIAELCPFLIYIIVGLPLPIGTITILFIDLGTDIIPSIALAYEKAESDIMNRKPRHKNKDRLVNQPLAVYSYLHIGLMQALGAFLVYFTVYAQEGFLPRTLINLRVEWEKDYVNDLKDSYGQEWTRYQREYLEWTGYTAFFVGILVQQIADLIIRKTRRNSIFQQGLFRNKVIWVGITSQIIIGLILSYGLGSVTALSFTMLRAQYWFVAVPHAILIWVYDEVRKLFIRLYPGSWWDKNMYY
UniProt Q7Z3C6: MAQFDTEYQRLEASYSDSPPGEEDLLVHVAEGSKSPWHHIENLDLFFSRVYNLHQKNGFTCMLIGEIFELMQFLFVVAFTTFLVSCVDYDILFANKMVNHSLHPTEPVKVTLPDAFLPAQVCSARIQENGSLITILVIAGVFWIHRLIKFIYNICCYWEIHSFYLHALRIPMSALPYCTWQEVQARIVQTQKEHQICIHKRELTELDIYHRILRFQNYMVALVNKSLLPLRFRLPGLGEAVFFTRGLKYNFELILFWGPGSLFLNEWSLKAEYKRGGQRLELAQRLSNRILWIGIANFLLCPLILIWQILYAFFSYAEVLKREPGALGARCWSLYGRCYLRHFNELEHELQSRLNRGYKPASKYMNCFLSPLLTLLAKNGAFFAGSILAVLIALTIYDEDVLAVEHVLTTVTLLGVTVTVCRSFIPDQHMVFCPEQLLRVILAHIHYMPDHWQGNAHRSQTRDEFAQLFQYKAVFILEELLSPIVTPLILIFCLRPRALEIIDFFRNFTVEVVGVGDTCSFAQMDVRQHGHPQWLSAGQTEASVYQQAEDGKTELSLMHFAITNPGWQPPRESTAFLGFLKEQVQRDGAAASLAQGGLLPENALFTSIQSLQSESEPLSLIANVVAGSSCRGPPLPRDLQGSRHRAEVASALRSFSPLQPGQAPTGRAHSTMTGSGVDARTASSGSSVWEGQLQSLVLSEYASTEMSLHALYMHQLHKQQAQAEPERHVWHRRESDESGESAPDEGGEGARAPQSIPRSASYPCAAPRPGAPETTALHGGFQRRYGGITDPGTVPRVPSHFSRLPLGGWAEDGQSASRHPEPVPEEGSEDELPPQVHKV
UniProt P56381: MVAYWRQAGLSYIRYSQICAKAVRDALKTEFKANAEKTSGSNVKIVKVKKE
UniProt Q9NVI7: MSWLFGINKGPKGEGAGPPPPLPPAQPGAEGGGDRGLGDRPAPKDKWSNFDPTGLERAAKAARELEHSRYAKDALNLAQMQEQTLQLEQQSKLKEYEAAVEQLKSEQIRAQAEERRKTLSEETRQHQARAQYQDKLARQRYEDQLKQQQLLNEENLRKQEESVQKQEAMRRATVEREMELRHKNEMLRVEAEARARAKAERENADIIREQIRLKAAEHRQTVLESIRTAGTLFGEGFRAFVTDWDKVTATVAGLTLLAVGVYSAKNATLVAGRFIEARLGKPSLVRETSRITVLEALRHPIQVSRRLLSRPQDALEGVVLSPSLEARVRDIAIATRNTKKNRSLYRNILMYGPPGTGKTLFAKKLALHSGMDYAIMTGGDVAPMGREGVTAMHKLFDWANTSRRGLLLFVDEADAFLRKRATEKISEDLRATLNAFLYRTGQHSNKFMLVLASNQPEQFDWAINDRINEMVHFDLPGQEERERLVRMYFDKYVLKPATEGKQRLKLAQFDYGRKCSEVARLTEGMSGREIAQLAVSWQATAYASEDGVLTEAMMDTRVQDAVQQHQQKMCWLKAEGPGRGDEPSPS
UniProt Q66PJ3: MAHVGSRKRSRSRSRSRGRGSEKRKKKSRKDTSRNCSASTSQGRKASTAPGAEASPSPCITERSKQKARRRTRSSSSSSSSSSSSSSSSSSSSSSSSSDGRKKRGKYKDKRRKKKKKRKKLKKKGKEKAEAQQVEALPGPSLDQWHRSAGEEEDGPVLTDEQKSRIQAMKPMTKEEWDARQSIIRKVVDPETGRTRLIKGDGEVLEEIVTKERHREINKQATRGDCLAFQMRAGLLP
UniProt Q16864, whole entry, looked up: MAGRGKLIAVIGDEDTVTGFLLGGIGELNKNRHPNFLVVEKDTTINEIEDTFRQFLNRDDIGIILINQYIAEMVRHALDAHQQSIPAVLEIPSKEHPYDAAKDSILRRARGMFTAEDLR

What was measured:
Assay in all cases: log2 fold change, soluble protein after heating vs DMSO (PISA); higher = thermal stabilisation; K562 cells, 10 uM, 30 min; active = over 0.2 and 3.5 SD of the protein, either way, in both replicates (recomputed)
erlotinib = compound: C#Cc1cccc(Nc2ncnc3cc(OCCOC)c(OCCOC)cc23)c1 [erlotinib]
In short: (§1)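 K562 cells at 2×10^6 cells/mL were given 10 μM compound for 30 min. Aliquots then went through 3 min of heating across 48°C-58°C, were pooled, and were extracted in PBS with 0.5% NP-40 at 4°C, and the supernatant after 21,000xg for 90 min was quantified by TMTpro 16plex LC-MS/MS with channel sums equalised. Thermal stability relative to control samples, from duplicates, is given as log2 fold change.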

[1] = compound: C/C(=N\NC(=O)C1=CC(=CC=C1)S(=O)(=O)N2CCOCC2)/C3=C(C=CC(=C3)Cl)O
In short: as §1

[2] = compound: C1=CC(=C(C=C1Cl)C2=NC3=NC=CN=C3C(=N2)NC4=CC=NC=C4)F
In short: as §1

[3] = compound: C1=CC(=CC=C1C2=NC3=C(N2)C=C(C=C3)C(=O)N)OC4=CC=C(C=C4)Cl
In short: as §1

[4] = compound: C1=CC2=C(C=CC(=C2)/C=C\3/C(=O)NC(=NCC4=CC=CS4)S3)N=C1
In short: as §1

[5] = compound: C1=CC2=NC=CN=C2C=C1/C=C/3\C(=O)NC(=O)S3
In short: as §1

[6] = compound: C1=CC=C(C=C1)C2=NC(=C(N2)C3=CC=NC=C3)C4=CC(=C(C=C4)Cl)O
In short: as §1

[7] = compound: C1=CC=C2C(=C1)C3=NNC4=CC=CC(=C43)C2=O
In short: as §1

[8] = compound: C1CCN(C1)C(=O)NC2=CC=CC(=C2)NC3=NC=C(C(=N3)NCCC4=CN=CN4)Br
In short: as §1

[9] = compound: C1CN(CCC1(CC2=CC=C(C=C2)Cl)N)C3=NC=NC4=C3C=CN4
In short: as §1

IRAK-1-4 Inhibitor I = compound: C1COCCN1CCN2C3=CC=CC=C3N=C2NC(=O)C4=CC(=CC=C4)[N+](=O)[O-] [IRAK-1-4 Inhibitor I]
In short: as §1

ibrutinib = compound: C=CC(=O)N1CCC[C@@H](n2nc(-c3ccc(Oc4ccccc4)cc3)c3c(N)ncnc32)C1 [ibrutinib]
In short: as §1

[10] = compound: CC(=O)c1cnc2ccc(-c3cc(Cl)c(O)c(Cl)c3)nc2c1N[C@H]1CC[C@H](CN(C)C)CC1
In short: as §1

ralimetinib = compound: CC(C)(C)Cn1c(N)nc2ccc(-c3[nH]c(C(C)(C)C)nc3-c3ccc(F)cc3)nc21 [ralimetinib]
In short: as §1

[11] = compound: CC(C)(O)CC(=O)NCCn1ccc2ncnc(Nc3ccc(Oc4cccc(C(F)(F)F)c4)c(Cl)c3)c21
In short: as §1

[12] = compound: CC(C)C1=C2N=C(C=C(N2N=C1)NCC3=CC=CC=C3)NCCCCCCN
In short: as §1

[13] = compound: CC(C)C[C@@H](C=O)NC(=O)[C@H](CC(C)C)NC(=O)[C@H](CC(C)C)NC(=O)OCc1ccccc1
In short: as §1

pinometostat = compound: CC(C)N(C[C@H]1O[C@@H](n2cnc3c(N)ncnc32)[C@H](O)[C@@H]1O)[C@H]1C[C@@H](CCc2nc3cc(C(C)(C)C)ccc3[nH]2)C1 [pinometostat]
In short: as §1

[14] = compound: CC1=C(C2=C(C=C1)C(=O)C3=CC=CC=C3N2CCCN)C
In short: as §1

[15] = compound: CC1=C(C(CC(=O)N1)C2=CC=C(C=C2)C(F)(F)F)C(=O)NC3=C(C=C4C(=C3)C=NN4)F
In short: as §1

Row | Target | log2 fold change (erlotinib) | log2 fold change [1] | log2 fold change [2] | log2 fold change [3] | log2 fold change [4] | log2 fold change [5] | log2 fold change [6] | log2 fold change [7] | log2 fold change [8] | log2 fold change [9] | log2 fold change (IRAK-1-4 Inhibitor I) | log2 fold change (ibrutinib) | log2 fold change [10] | log2 fold change (ralimetinib) | log2 fold change [11] | log2 fold change [12] | log2 fold change [13] | log2 fold change (pinometostat) | log2 fold change [14] | log2 fold change [15]
1 | ATAD3B (UniProt Q5T9A4) | inactive: -0.027 | inactive: -0.018 | inactive: -0.128 | inactive: -0.006 | inactive: -0.005 | inactive: -0.002 | inactive: -0.06 | inactive: 0.066 | inactive: 0.01 | inactive: -0.091 | inactive: -0.05 | inactive: 0.045 | inactive: -0.01 | inactive: 0.122 | inactive: -0.011 | active: -0.472 | inactive: 0.066 | inactive: 0.276 | inactive: 0.024 | –
2 | ATL2 (UniProt Q8NHH9) | inactive: -0.004 | inactive: 0 | inactive: 0.081 | inactive: 0.004 | inactive: 0.049 | inactive: 0.012 | inactive: 0.049 | inactive: 0.014 | inactive: 0.077 | inactive: 0 | inactive: 0.011 | inactive: 0.006 | inactive: -0.058 | inactive: -0.116 | inactive: -0.087 | inactive: 0.054 | inactive: -0.001 | inactive: 0.035 | inactive: 0.169 | –
3 | ATP13A2 (UniProt Q9NQ11) | inactive: 0.047 | inactive: 0.012 | inactive: 0.011 | inactive: 0.096 | inactive: 0.024 | inactive: 0.099 | inactive: 0.01 | inactive: -0.042 | inactive: 0.035 | inactive: 0.082 | inactive: 0.04 | inactive: 0.074 | inactive: 0.007 | inactive: -0.033 | inactive: -0.03 | active: -0.511 | inactive: 0.011 | inactive: 0.063 | inactive: 0.181 | –
4 | ARL3 (UniProt P36405) | inactive: -0.009 | inactive: 0.007 | inactive: 0.033 | inactive: -0.037 | inactive: 0.046 | inactive: 0.007 | inactive: 0.019 | inactive: -0.015 | inactive: -0.026 | inactive: 0.041 | inactive: 0.049 | inactive: -0.01 | inactive: -0.033 | inactive: -0.042 | inactive: -0.034 | inactive: 0.065 | inactive: -0.057 | inactive: -0.029 | inactive: 0.017 | –
5 | ASNS (UniProt P08243) | inactive: 0.006 | inactive: 0.004 | inactive: 0.053 | inactive: -0.015 | inactive: 0.012 | inactive: -0.011 | inactive: 0.034 | inactive: -0.008 | inactive: 0.002 | inactive: 0.02 | inactive: 0.046 | inactive: 0.015 | inactive: 0.006 | inactive: -0.033 | inactive: -0.029 | inactive: 0.017 | inactive: -0.003 | inactive: -0.034 | inactive: -0.007 | –
6 | ARMC10 (UniProt Q8N2F6) | inactive: -0.021 | inactive: 0.044 | inactive: -0.092 | inactive: -0.066 | inactive: 0.005 | inactive: 0.006 | inactive: -0.034 | inactive: 0.016 | inactive: 0.003 | inactive: -0.023 | inactive: 0.001 | inactive: -0.018 | inactive: -0.035 | inactive: -0.003 | inactive: -0.029 | inactive: 0.005 | inactive: 0.034 | inactive: 0.033 | inactive: 0 | –
7 | ATP11A (UniProt P98196) | inactive: -0.038 | inactive: 0.015 | inactive: 0.004 | inactive: 0.005 | inactive: -0.038 | inactive: 0.035 | inactive: -0.048 | inactive: -0.085 | inactive: -0.035 | inactive: 0.012 | inactive: -0.003 | inactive: 0.007 | inactive: 0.018 | inactive: 0 | inactive: -0.026 | inactive: 0.073 | inactive: 0.052 | inactive: 0.004 | inactive: 0.036 | –
8 | ASH2L (UniProt Q9UBL3) | inactive: -0.021 | inactive: 0.025 | inactive: 0.019 | inactive: -0.062 | inactive: -0.012 | inactive: 0.022 | inactive: 0.001 | inactive: -0.029 | inactive: -0.004 | inactive: 0.052 | inactive: -0.022 | inactive: -0.048 | inactive: -0.046 | inactive: 0.004 | inactive: -0.018 | inactive: 0.016 | inactive: -0.004 | inactive: -0.013 | inactive: -0.044 | –
9 | ATP9B (UniProt O43861) | active: 0.406 | inactive: 0.099 | inactive: 0.01 | inactive: -0.132 | inactive: -0.029 | inactive: -0.045 | inactive: 0.033 | inactive: -0.038 | inactive: 0.027 | inactive: -0.064 | inactive: 0.061 | inactive: -0.068 | inactive: -0.034 | inactive: -0.077 | inactive: -0.054 | inactive: -0.071 | inactive: -0.024 | inactive: -0.064 | inactive: 0.003 | –
10 | ATP1B2 (UniProt P14415) | inactive: -0.048 | inactive: -0.129 | inactive: 0.122 | inactive: 0.096 | inactive: 0.113 | inactive: 0.072 | inactive: 0.07 | inactive: 0.028 | inactive: 0.016 | inactive: 0.014 | inactive: -0.008 | inactive: 0.055 | inactive: -0.137 | inactive: 0.037 | inactive: -0.067 | inactive: 0.081 | inactive: 0 | inactive: -0.048 | inactive: 0.078 | –
11 | ATP12A isoform 2 (UniProt P54707) | inactive: 0.01 | inactive: -0.002 | inactive: 0.025 | inactive: 0.014 | inactive: 0.007 | inactive: 0.026 | inactive: 0.025 | inactive: -0.049 | inactive: -0.051 | inactive: 0.05 | inactive: 0.013 | inactive: 0.009 | inactive: -0.033 | inactive: -0.031 | inactive: -0.036 | inactive: 0.162 | inactive: -0.005 | inactive: -0.03 | inactive: 0.086 | –
12 | ATG9A (UniProt Q7Z3C6) | inactive: 0.044 | inactive: 0.03 | inactive: 0.057 | inactive: -0.003 | inactive: 0.047 | inactive: 0.021 | inactive: 0.045 | inactive: -0.005 | inactive: -0.026 | inactive: -0.023 | inactive: 0 | inactive: 0.081 | inactive: -0.091 | inactive: -0.023 | inactive: -0.056 | inactive: -0.176 | inactive: 0.06 | inactive: 0.015 | inactive: 0.038 | –
13 | ATP5F1E (UniProt P56381) | inactive: -0.01 | inactive: -0.073 | inactive: 0.056 | inactive: 0.009 | inactive: -0.053 | inactive: 0.014 | inactive: -0.009 | inactive: -0.012 | inactive: 0.035 | inactive: 0.007 | inactive: 0.019 | inactive: -0.029 | inactive: 0.023 | inactive: -0.099 | inactive: 0.013 | inactive: 0.035 | inactive: -0.037 | inactive: -0.058 | inactive: -0.078 | inactive: 0.004
14 | ATP1A1 (UniProt P05023) | inactive: 0.003 | inactive: 0.02 | inactive: 0.017 | inactive: -0.012 | inactive: -0.036 | inactive: 0.012 | inactive: -0.017 | inactive: -0.032 | inactive: -0.015 | inactive: 0.057 | inactive: 0.071 | inactive: 0.03 | inactive: 0.007 | inactive: -0.029 | inactive: -0.006 | inactive: 0.182 | inactive: -0.002 | inactive: -0.006 | inactive: 0.009 | –
15 | ATAD3A isoform 2 (UniProt Q9NVI7) | inactive: -0.036 | inactive: 0.02 | inactive: -0.045 | inactive: 0.006 | inactive: -0.038 | inactive: -0.013 | inactive: -0.04 | inactive: 0.017 | inactive: 0.037 | inactive: -0.101 | inactive: -0.005 | inactive: 0.08 | inactive: -0.075 | inactive: 0.009 | inactive: -0.023 | active: -0.468 | inactive: 0.075 | inactive: 0.082 | inactive: 0.096 | –
16 | ARL6IP4 (UniProt Q66PJ3) | inactive: 0.041 | inactive: 0.06 | inactive: -0.085 | inactive: -0.01 | inactive: -0.08 | inactive: 0 | inactive: -0.12 | inactive: 0.117 | inactive: 0.003 | inactive: 0.039 | inactive: 0.049 | inactive: 0.026 | inactive: 0.018 | inactive: 0.01 | inactive: 0 | inactive: 0.075 | inactive: 0.021 | inactive: -0.03 | inactive: 0.049 | –
17 | ATP6V1F isoform 2 (UniProt Q16864) | inactive: -0.049 | inactive: -0.017 | inactive: 0.232 | inactive: 0.077 | inactive: 0.04 | inactive: 0.189 | inactive: -0.017 | inactive: -0.024 | inactive: -0.066 | inactive: -0.222 | inactive: 0.053 | inactive: -0.003 | inactive: -0.189 | inactive: -0.054 | inactive: -0.132 | inactive: -0.024 | inactive: -0.059 | inactive: -0.009 | inactive: 0.253 | –

Copied from the list:
Entry of ATAD3A isoform 2 (UniProt Q9NVI7) under log2 fold change [9]: inactive: -0.101
Entry of ASH2L (UniProt Q9UBL3) under log2 fold change [10]: inactive: -0.046
